# PubChem BioAssay AID1439 (NMMLSC, 2008)
# Protein sequences, listed by entry. Tags and fused reporters are not part of them.
# UniProt P09471, whole entry, looked up: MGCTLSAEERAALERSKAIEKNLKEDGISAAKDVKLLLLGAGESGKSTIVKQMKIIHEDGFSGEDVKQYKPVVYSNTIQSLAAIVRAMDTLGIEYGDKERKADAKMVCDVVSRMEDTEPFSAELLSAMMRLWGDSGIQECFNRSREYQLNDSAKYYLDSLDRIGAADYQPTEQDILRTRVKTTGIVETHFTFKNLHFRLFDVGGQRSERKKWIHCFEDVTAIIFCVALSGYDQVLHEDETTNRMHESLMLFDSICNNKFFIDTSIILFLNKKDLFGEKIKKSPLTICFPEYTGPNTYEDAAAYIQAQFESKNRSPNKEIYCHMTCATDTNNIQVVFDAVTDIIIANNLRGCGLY
# About 770 (0.35%) of roughly 220,000 compounds were called active. Inconclusive results, whose numbers are uncertain, are shown with a selection of clear calls. No stated cut-off is given here; in the data, active means binding response below about 49% or above about 150%; inconclusive means no clear call, values can overlap the other calls; inactive means in between.
# Molecular target: Guanine nucleotide-binding protein G(o) subunit alpha (Homo sapiens) (UniProt P09471)
# Experiment: RGS7-Galphao binding modulators, primary screen, biochemical, multiplexed bead flow cytometry (AID 1439);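 further: fluorescent Galphao held in activated GDP-AlF4 state binding bead-coupled RGS7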
# Settings: at 10 µM, actives lie on both sides
row,SMILES,binding response (% of control)
1,CCn1nc(C)c(CNC(=O)CC2C(=O)NCCN2CC(C)(C)C)c1C (stereo not drawn),inactive: 102%
2,CC1CCC(C(C)C)C(OC(=O)Cn2c(-c3ccc(Cl)cc3)[n+](C)c3ccccc32)C1 (stereo not drawn),inconclusive: 104%
3,Clc1ccc(-c2nc(/C=N/N3CCOCC3)c3ccccn23)cc1,inconclusive: 92.3%
4,C=CCNC(=O)N[C@@H](Cc1ccccc1)C(=O)OC,inconclusive: 148%
5,COc1ccc(/C=C/C(=O)NNc2cc(=O)n(C)c(=O)n2C)cc1OC,inconclusive: 87.8%
6,COc1cc2c(cc1O)C(Cc1ccc(O)cc1)[N+](C)([O-])CC2 (stereo not drawn),inconclusive: 104%
7,CCn1cc(C(=O)O)c(=O)c2cc(F)c(N3CCN(C(=S)NC(=O)c4ccccc4Cl)CC3)cc21,inconclusive: 92.2%
8,CC(=O)Nc1cccn(Cc2c(Cl)cccc2Cl)c1=O,inconclusive: 84%
9,Cc1c(NC(=O)CS(=O)(=O)c2ccccc2)c(=O)n(-c2ccccc2)n1C,inconclusive: 123%
10,O=C(Nc1ccc(O)cc1)/C(=C\C=C\c1ccccc1)NC(=O)c1ccccc1,inconclusive: 96.7%
11,Cc1ccc(C)n1-c1cccc(C(=O)Nc2ccccc2)c1,inconclusive: 132%
12,C/C(CCc1ccco1)=N\NC(=O)CNc1cccc2ccccc12,inconclusive: 76.5%
13,Cc1ccc(S(=O)(=O)N2CCN(CC(=O)N/N=C\c3ccccn3)CC2)cc1,inconclusive: 619%
14,O=C(O)Cc1ccc(OCc2ccc(Cl)nc2)cc1,inactive: 99.2%
15,COc1cc(CCC(=O)OCC(=O)Nc2cccc(S(N)(=O)=O)c2)cc(OC)c1OC,inactive: 91.7%
16,O=C(Nc1ccccc1C(=O)Nc1nnc(C(F)(F)F)s1)c1ccccc1Cl,inconclusive: 90.7%
17,Cc1cc(C)c2c(=O)[nH]cnc2n1,inconclusive: 94.4%
18,Cn1c(CO)cnc1SCC(=O)c1ccc(Cl)cc1,inconclusive: 104%
19,S=C(NCc1ccco1)Nc1cccc(Cl)c1Cl,inconclusive: 101%
20,COC(=O)c1sccc1NC(=O)CC1C(=O)NCCN1C(=O)c1ccccc1 (stereo not drawn),inconclusive: 85.5%
21,COc1ccc(Cl)cc1NC(=O)CCN1CCOCC1,inconclusive: 112%
22,CCC(C)NC(=O)N1c2ccccc2Sc2ccccc21 (stereo not drawn),inconclusive: 105%
23,COc1ccc(OC)c(NC(=O)c2ccc(-c3cccs3)cc2)c1,inactive: 99.2%
24,Cc1nnc(SCC(=O)Nc2ccccc2)n(N)c1=O,inactive: 111%

row,SMILES,binding response (% of control)
1,CCCCN(CC)CCNC(=O)CCNC(=O)Cn1ccc2ccccc2c1=O,inconclusive: 87.5%
2,CC(=O)NNC(=O)c1nc(-c2ccccc2)c(C)o1,inconclusive: 188%
3,CSc1sc(-c2ccnc(SCCS(C)(=O)=O)n2)c(-c2ccccc2)c1C#N,inconclusive: 113%
4,COC(=O)C1=C(C)N(Cc2ccccc2)C(=O)N[C@H]1c1ccc(Br)cc1,inconclusive: 92.3%
5,O=C(Cn1cnc2cc([N+](=O)[O-])ccc2c1=O)NCc1ccccc1,inactive: 96.4%
6,N#Cc1cc2c(nc1SCC(=O)O)CCCCC2,inconclusive: 80.4%
7,CCOc1ccc(/C=N/Nc2ccccn2)cc1OC,inconclusive: 94.1%
8,O=C1COc2ccc(C(=O)COC(=O)c3ccc4ccccc4n3)cc2N1,inactive: 102%
9,C/C(=N\OCc1nc2ccccc2c(=O)n1/N=C/c1cc([N+](=O)[O-])ccc1O)c1ccccc1,inconclusive: 94%
10,COc1ccccc1OCC(=O)NNC(=O)Nc1ccc(Cl)cc1,inconclusive: 54.5%
11,COC(=O)C1(C(=O)OC)NOC2C(=O)N(N(C)c3ncc(C(F)(F)F)cc3Cl)C(=O)C21 (stereo not drawn),inactive: 98%
12,COc1ccc(Cl)cc1C(=O)NNC(=O)c1cccc([N+](=O)[O-])c1,inconclusive: 98.1%
13,O=C(/C=C/c1cccnc1)c1cc(F)ccc1O,inconclusive: -26.6%
14,CC(C)(C)c1ccc(-c2nc3n(c(=O)c2C#N)CCS3)cc1,inactive: 99.7%
15,Cc1nc2c(sc3nc(N4CCOCC4)c4c(c32)CC(C)(C)OC4)c(-c2ccc(Cl)cc2)c1C(=O)O,inconclusive: 98.3%
16,COC(=O)CCC(=O)OC1(C)C(=O)C=C2C=C(C3CC3)N(CCCCO)C=C2C1=O (stereo not drawn),inconclusive: 92%
17,Cc1cc(NC(=O)CSc2nc3cc(Cl)ccc3c(=O)n2Cc2ccco2)no1,inconclusive: 91.2%
18,COc1ccc(-c2c[n+]3c(n2-c2c(C)n(C)n(-c4ccccc4)c2=O)CCCCC3)cc1,inconclusive: 120%
19,COc1ccc(-c2noc(CCC(=O)NC3CCCC3)n2)cc1,inconclusive: 103%
20,CC(O)C1C(=O)OC2(C)CC(C)(C)NC(=S)N12 (stereo not drawn),inactive: 106%
21,N=c1ccn2c(n1)OC1C(O)C(CO)OC12 (stereo not drawn),inconclusive: 69.7%
22,Cc1cc2nc3n(c2cc1C)CC1CC(C(=O)NCc2ccco2)N(C)C31 (stereo not drawn),inconclusive: 107%
23,CCn1c(C(=O)N2CCCC(C(=O)NCCCc3ccccc3)C2)cc2sccc21 (stereo not drawn),inactive: 103%
24,COCCOC(=O)C1=C(C)Nc2ncnn2C1c1ccco1 (stereo not drawn),inconclusive: 92.2%

row,SMILES,binding response (% of control)
1,C(=N\N1CCN(c2ccccn2)CC1)/c1ccccn1,inconclusive: -640%
2,CNC(=O)c1[nH]cnc1C(=O)Nc1ccc(OC)cc1,inconclusive: 118%
3,CNc1ncc(C(=O)c2ccc(Br)cc2)s1,inconclusive: 112%
4,CCOC(=O)Cn1c(=O)oc2cc(S(=O)(=O)NC(C)(C)CC)ccc21,inconclusive: 105%
5,O=C(Nc1ccc(CN2CCCCC2)cc1)Nc1ccccc1Cl,inconclusive: 31.5%
6,O=c1[nH]nc(CNc2ccc(OC(F)(F)F)cc2)c2ccccc12,inconclusive: 112%
7,CCN(CC)C(=O)COc1ccc(/C(C)=N/NC(=O)c2ccccc2Br)cc1,inconclusive: 94.3%
8,COc1ccc(C(C)=O)cc1COc1ccc(Cl)cc1Cl,inconclusive: 240%
9,O=C(/C=C/c1ccccc1)Nc1cccnc1Oc1ccccc1F,inconclusive: 88.7%
10,CCOP(=O)(OCC)/C(=N/OC(=O)c1ccc(OC)cc1)C(N)=O,inconclusive: 107%
11,O=C(COC(=O)CCN=C1NS(=O)(=O)c2ccccc21)NC1CCCCCCC1,inconclusive: -3.85%
12,CSC(=Nc1ccccc1)Nc1ccccc1,inconclusive: 102%
13,O=C(CSc1ncnc2[nH]ncc12)Nc1cccc(Oc2ccccc2)c1,inconclusive: 98%
14,CS(=O)(=O)N1CCN(C2C3CC4CC(C3)CC2C4)CC1 (stereo not drawn),inactive: 99.9%
15,N#Cc1c2ccccc2nc2ccccc12,inconclusive: 120%
16,CCOC(=O)/C(C#N)=N/Nc1ccccc1C(=O)O,inconclusive: 84.5%
17,COc1ccc(-c2cc(C(=O)Nc3cccc(S(=O)(=O)NCc4ccco4)c3)c3ccccc3n2)cc1OC,inconclusive: 107%
18,NS(=O)(=O)c1cccc(NC(=O)c2cccnc2Oc2ccccc2)c1,inconclusive: 130%
19,Cc1ccc(C(=O)CN(C(=O)c2ccc(Cl)cc2)N2C(=O)CCC2=O)cc1,inconclusive: 94.8%
20,CCC(C)CN1CCC(CO)(Cc2ccccc2Cl)CC1 (stereo not drawn),inactive: 103%
21,CCN(CC)c1ccc(/C=C(/C#N)c2nc3ccccc3[nH]2)c(OC(C)C)c1,inactive: 89%
22,NS(=O)(=O)c1ccc(NC(=O)COC(=O)c2cc3ccccc3cc2O)cc1,inconclusive: -3.66%
23,O=C(c1cc(F)ccc1F)C1CCCN(Cc2cccn2-c2ccccn2)C1 (stereo not drawn),inconclusive: 109%
24,N#CCCN(CCC#N)C(=S)NC1CC2C=CC1C2 (stereo not drawn),inconclusive: 98.5%

row,SMILES,binding response (% of control)
1,CC(C)C(=O)N1CCN(c2ccc(NC(=O)COc3ccccc3[N+](=O)[O-])cc2)CC1,inconclusive: 94.5%
2,Cc1[nH]c(=S)c(C#N)c(C)c1CCC#N,inconclusive: 102%
3,O=C(O)COc1cccc(NC(=O)c2ccccc2)c1,inactive: 94.5%
4,Cc1c(O)nc2ccccn2c1=O,inconclusive: -55.2%
5,Cc1nc(C#N)c(N/N=C/c2c(F)cccc2Cl)o1,inactive: 67.6%
6,CCc1cccc(C)c1NC(=S)N1CCCCC1c1cccnc1 (stereo not drawn),inconclusive: 99.1%
7,Cc1ccc(C(=O)Nc2onc(C)c2C#N)cc1,inactive: 100%
8,COc1ccc(CC(=O)NCc2nc(-c3ccccc3)no2)cc1,inconclusive: 101%
9,COc1ccc(CCNC(=O)COC(=O)C2CC2)cc1,inconclusive: 105%
10,CC[n+]1c(/C=C/c2c[nH]c3ccccc23)ccc2cc(C)ccc21,inactive: 124%
11,COc1ccc(C(CC(=O)NCc2ccccc2)C(C)C)cc1 (stereo not drawn),inconclusive: 75%
12,CCN(CC)C(=O)COc1ccc(N(C)S(=O)(=O)c2ccc(NC(C)=O)cc2)cc1,inconclusive: -15.5%
13,CC(=O)Nc1cccc(NC(=O)CSc2nn3c(=O)c(C)nnc3s2)c1,inconclusive: 174%
14,CCOC(=O)N=Nc1c2ccccc2c2nc3no[nH]c3nc12,inconclusive: 92.5%
15,CC(=O)c1ccc(NC(=S)NN2C(C)CCCC2C)cc1 (stereo not drawn),inconclusive: 95.6%
16,Cc1ccccc1OCC(=O)N/N=C/c1ccc(N(C)C)cc1,inconclusive: 98.5%
17,COCCCNCCCOc1ccc(C)cc1Br,inactive: 103%
18,Cc1nc(N)sc1C(=O)OCC(C)C,inconclusive: 92.1%
19,CC(=O)Nc1ccc(NC(=O)C/C(C)=N/NC(=O)C(=O)Nc2ccc(C)c(Cl)c2)cc1,inconclusive: 85.5%
20,NS(=O)(=O)c1ccc(CCNC(=O)COC(=O)CN2C(=O)C3CCCCC3C2=O)cc1 (stereo not drawn),inactive: 107%
21,O=C(NC(C(=O)N/N=C/c1cccnc1)c1n[nH]c(=O)c2ccccc12)c1ccccc1 (stereo not drawn),inconclusive: 113%

# Random excerpt: three entries already listed, in no set order.
row,SMILES,binding response (% of control)
3,O=C(O)COc1cccc(NC(=O)c2ccccc2)c1,inactive: 94.5%
21,O=C(NC(C(=O)N/N=C/c1cccnc1)c1n[nH]c(=O)c2ccccc12)c1ccccc1 (stereo not drawn),inconclusive: 113%
13,CC(=O)Nc1cccc(NC(=O)CSc2nn3c(=O)c(C)nnc3s2)c1,inconclusive: 174%
